Drawing on article PMC5186766, this text covers binding for 1 molecule.

Chains of the proteins cited; added tags and fusions are not shown.
UniProt O00571: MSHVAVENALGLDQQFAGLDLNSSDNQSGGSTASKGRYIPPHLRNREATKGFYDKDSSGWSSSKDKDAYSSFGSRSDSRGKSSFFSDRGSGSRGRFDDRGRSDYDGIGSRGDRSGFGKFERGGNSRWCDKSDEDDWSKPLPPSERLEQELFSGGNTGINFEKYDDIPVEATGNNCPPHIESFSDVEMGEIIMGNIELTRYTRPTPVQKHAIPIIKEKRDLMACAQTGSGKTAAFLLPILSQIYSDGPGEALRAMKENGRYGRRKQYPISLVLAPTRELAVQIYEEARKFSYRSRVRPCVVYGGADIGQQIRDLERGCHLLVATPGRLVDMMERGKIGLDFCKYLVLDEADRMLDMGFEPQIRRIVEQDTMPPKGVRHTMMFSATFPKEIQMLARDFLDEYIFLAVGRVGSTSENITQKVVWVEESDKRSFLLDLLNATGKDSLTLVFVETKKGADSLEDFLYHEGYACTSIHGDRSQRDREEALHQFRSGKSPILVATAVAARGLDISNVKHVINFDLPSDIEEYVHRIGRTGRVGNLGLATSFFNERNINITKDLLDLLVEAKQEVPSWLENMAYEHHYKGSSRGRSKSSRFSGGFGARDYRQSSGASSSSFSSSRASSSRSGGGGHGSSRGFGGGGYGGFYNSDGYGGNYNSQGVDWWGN

These are yes or no findings as the source states them, for the method shown. In cells and extracts the contact can be indirect. Some results given as binding are weak or reduced against the parent protein; the word gives no strength.

The target of this experiment is GST.DDX3 fusion protein (UniProt O00571). As to the kind of experiment: pull-down; purified GST or GST fusion protein (15 μg) on 20 μl glutathione sepharose beads plus 10 μl of in vitro translated [35S]-labeled protein, overnight at 4°C, washed with 0.1 M PBS; SDS-PAGE and autoradiography; only the target purified.

B1: human adenovirus (HAdV)-5 pVIII (protein, UniProt P24936 1-227)
chain: MSKEIPTPYMWSYQPQMGLAAGAAQDYSTRINYMSAGPHMISRVNGIRAHRNRILLEQAAITTTPRNNLNPRSWPAALVYQESPAPTTVVLPRDAQAEVQMTNSGAQLAGGFRHRVRSPGQGITHLTIRGRGIQLNDESVSSSLGLRPDGTFQIGGAGRPSFTPRQAILTLQTSSSEPRSGGIGTLQFIEEFVPSVYFNPFSGPPGHYPDQFIPNFDAVKDSADGYD
modifications: [35S] methionine labeled
With B1, the binding entry was “binds”.
